The target in this assay is odorant receptor OR51E1 (human (endogenous in heart tissue)) (UniProt Q8TCB6). Description: SDS-PAGE and western blot; lysates of left ventricle and septum of explanted human heart, blotted with anti-OR51E1 antibody; bands of monomer (35 kDa) and dimer (70 kDa).

No constants are given. Whether binding was seen depends on the method and setting. Some binding calls cover weakened binding; strength is not graded here.

B1: odorant receptor OR51E1 (receptor, UniProt Q8TCB6 1-318)
chain: MMVDPNGNESSATYFILIGLPGLEEAQFWLAFPLCSLYLIAVLGNLTIIYIVRTEHSLHEPMYIFLCMLSGIDILISTSSMPKMLAIFWFNSTTIQFDACLLQMFAIHSLSGMESTVLLAMAFDRYVAICHPLRHATVLTLPRVTKIGVAAVVRGAALMAPLPVFIKQLPFCRSNILSHSYCLHQDVMKLACDDIRVNVVYGLIVIISAIGLDSLLISFSYLLILKTVLGLTREAQAKAFGTCVSHVCAVFIFYVPFIGLSMVHRFSKRRDSPLPVILANIYLLVPPVLNPIVYGVKTKEIRQRILRLFHVATHASEP
With B1, the binding entry is “binds”.

(Values after article PMC5258789.)
